Test results published in paper PMC12286604.

Target: T1, NOXA, wild type, transfected (UniProt Q13794)
T1 sequence: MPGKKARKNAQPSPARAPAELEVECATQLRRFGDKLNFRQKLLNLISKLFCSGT
Experiment: co-IP; exogenous co-IP: anti-FLAG IP from whole-cell lysate of 293T cells transfected with plasmids for both partners, western blot; which partner bore FLAG is not given

- binding: no binding
Substance: WSB2 with the SOCS box deleted (domain or fragment)

No constants are given. Whether binding was seen depends on the method and setting. Binding seen in cells or lysates may run through a third protein.
